Reference: PubChem BioAssay AID743121 (NCATS, 2013)
The whole screen tested about 26,000 reagents; shown is an unselected part. 167 of all reagents (0.63%) were called active. 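Calls are per gene from RSA p-values that are not deposited; an individual active-marked siRNA can sensitise only weakly.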 Reagents against one gene are numbered here. Further read-outs or replicates are left out here.

Aim: 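Genes whose silencing strengthens cell killing by camptothecin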 (primary screen)
Cell system: MDA-MB-231 cells, a human breast cancer line
Knock-down reagent: single siRNA against human genes, 20 nM siRNA (0.8 pmol per well)
Timing: 120 h (drug added 48 h after transfection, read 72 h later)
Treatment: camptothecin 20 nM (about EC30) for 72 h; vehicle 0.1% DMSO in parallel plates
Read-out: 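CellTiter-Glo ATP signal, scaled to control siRNA as percent viability; sensitisation given as log2 of untreated divided by camptothecin-treated viability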
Reading the numbers: log2 vehicle/camptothecin viability: higher = stronger sensitisation to camptothecin; viability with camptothecin: higher = more viable cells
Call rule: 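Each gene scored by redundant siRNA activity (RSA) over its individual siRNA ratios; a gene is called active at p < 0.001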

For HSP90AA1 (heat shock protein 90 alpha family class A member 1) #1, how do the results read?
log2 vehicle/camptothecin viability: -0.461; viability with camptothecin (% of control): 57.8; Call: inactive

Which result is listed for HSP90AA1 (heat shock protein 90 alpha family class A member 1) #2?
log2 vehicle/camptothecin viability: -0.485; viability with camptothecin (% of control): 59.8; Call: inactive

Which result is listed for HSP90AA1 (heat shock protein 90 alpha family class A member 1) #3?
log2 vehicle/camptothecin viability: 0.123; viability with camptothecin (% of control): 13.7; Call: inactive

Which result is listed for HSP90AA1 (heat shock protein 90 alpha family class A member 1) #4?
log2 vehicle/camptothecin viability: -0.241; viability with camptothecin (% of control): 97.1; Call: inactive

For PHF21B (PHD finger protein 21B) #1, how do the results read?
log2 vehicle/camptothecin viability: -0.46; viability with camptothecin (% of control): 89.2; Call: inactive

For PHF21B (PHD finger protein 21B) #2, what does the deposit list?
log2 vehicle/camptothecin viability: -0.291; viability with camptothecin (% of control): 53.3; Call: inactive

Which result is listed for PHF21B (PHD finger protein 21B) #3?
log2 vehicle/camptothecin viability: 0.121; viability with camptothecin (% of control): 20.4; Call: inactive

Which result is listed for PHF21B (PHD finger protein 21B) #4?
log2 vehicle/camptothecin viability: -0.838; viability with camptothecin (% of control): 77.6; Call: inactive

Reprinted from above, 2 entries:
HSP90AA1 (heat shock protein 90 alpha family class A member 1) #2: log2 vehicle/camptothecin viability = -0.485; viability with camptothecin (% of control) = 59.8; Call = inactive
HSP90AA1 (heat shock protein 90 alpha family class A member 1) #3: log2 vehicle/camptothecin viability = 0.123; viability with camptothecin (% of control) = 13.7; Call = inactive

Next reagents follow:
What did the screen give for PTPRD (protein tyrosine phosphatase receptor type D) #1?
log2 vehicle/camptothecin viability: -0.33; viability with camptothecin (% of control): 108; Call: inactive

What did the screen give for PTPRD (protein tyrosine phosphatase receptor type D) #2?
log2 vehicle/camptothecin viability: 0.0832; viability with camptothecin (% of control): 88.8; Call: inactive

Which result is listed for PTPRD (protein tyrosine phosphatase receptor type D) #3?
log2 vehicle/camptothecin viability: -0.354; viability with camptothecin (% of control): 72.1; Call: inactive

How did the screen score PTPRD (protein tyrosine phosphatase receptor type D) #4?
log2 vehicle/camptothecin viability: -0.286; viability with camptothecin (% of control): 62.1; Call: inactive

What did the screen give for CLCA3P (chloride channel accessory 3, pseudogene) #1?
log2 vehicle/camptothecin viability: -0.393; viability with camptothecin (% of control): 76.6; Call: inactive

For CLCA3P (chloride channel accessory 3, pseudogene) #2, what was measured?
log2 vehicle/camptothecin viability: -0.237; viability with camptothecin (% of control): 84.5; Call: inactive

What did the screen give for CLCA3P (chloride channel accessory 3, pseudogene) #3?
log2 vehicle/camptothecin viability: -0.169; viability with camptothecin (% of control): 115; Call: inactive

For CLCA3P (chloride channel accessory 3, pseudogene) #4, how do the results read?
log2 vehicle/camptothecin viability: -0.701; viability with camptothecin (% of control): 95.2; Call: inactive
